Assay results taken from article PMC9301129.
These are yes or no findings as the source states them, for the method shown. Binding seen in cells or lysates may run through a third protein. Some entries that bind do so weakly or less than the wild type. Sequences can lack the tags named with a protein.

Amino acid sequences for entries named in this document (tags omitted).
UniProt P22366: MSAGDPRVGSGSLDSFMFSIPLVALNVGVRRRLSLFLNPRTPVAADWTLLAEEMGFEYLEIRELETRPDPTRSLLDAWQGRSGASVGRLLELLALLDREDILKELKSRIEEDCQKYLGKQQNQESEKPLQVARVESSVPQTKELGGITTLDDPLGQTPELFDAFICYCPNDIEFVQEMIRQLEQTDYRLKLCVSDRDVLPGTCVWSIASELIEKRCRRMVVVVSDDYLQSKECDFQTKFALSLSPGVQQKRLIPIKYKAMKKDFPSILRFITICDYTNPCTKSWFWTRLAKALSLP

Assays:
[1] = target: T1, TLR9-myc (in UNC93B1 KO iBMDMs) (UniProt Q9EQU3); assay: co-IP; UNC93B1 KO iBMDMs expressing TLR9-myc and UNC93B1-GFP (wild type or mutant), unstimulated; TLR9-myc precipitated from cell lysates; MyD88 detected with anti-MyD88
T1 sequence: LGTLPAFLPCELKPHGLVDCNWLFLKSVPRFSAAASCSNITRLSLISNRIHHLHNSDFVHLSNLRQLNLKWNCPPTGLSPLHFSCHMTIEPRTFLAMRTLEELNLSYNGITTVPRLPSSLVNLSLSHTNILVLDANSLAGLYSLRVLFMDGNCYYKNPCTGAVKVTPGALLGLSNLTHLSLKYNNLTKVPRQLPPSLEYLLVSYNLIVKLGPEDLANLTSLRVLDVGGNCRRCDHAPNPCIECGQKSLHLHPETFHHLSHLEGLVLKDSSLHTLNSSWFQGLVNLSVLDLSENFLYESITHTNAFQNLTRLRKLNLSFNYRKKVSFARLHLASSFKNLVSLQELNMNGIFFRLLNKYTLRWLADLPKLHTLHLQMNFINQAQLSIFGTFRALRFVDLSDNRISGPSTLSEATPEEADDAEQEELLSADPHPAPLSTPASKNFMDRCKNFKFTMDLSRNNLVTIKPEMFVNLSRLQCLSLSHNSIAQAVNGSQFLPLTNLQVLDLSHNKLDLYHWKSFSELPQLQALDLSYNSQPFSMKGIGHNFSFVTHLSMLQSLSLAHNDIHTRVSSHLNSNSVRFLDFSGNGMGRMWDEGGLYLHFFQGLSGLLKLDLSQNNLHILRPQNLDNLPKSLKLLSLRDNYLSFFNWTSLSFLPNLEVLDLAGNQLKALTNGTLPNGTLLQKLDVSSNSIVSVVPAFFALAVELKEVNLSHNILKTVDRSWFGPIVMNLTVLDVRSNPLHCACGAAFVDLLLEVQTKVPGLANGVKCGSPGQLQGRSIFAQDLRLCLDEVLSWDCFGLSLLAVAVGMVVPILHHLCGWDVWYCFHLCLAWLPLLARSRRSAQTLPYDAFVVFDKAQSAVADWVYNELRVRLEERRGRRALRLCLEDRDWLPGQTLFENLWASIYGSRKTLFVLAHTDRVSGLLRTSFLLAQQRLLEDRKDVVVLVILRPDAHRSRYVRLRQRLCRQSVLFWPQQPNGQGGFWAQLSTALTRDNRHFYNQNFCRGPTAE

[2] = target: T1, TLR9-myc (in UNC93B1 KO iBMDMs); assay: co-IP; UNC93B1 KO iBMDMs expressing TLR9-myc and UNC93B1-GFP (N272Q or N251Q/N272Q), stimulated with 1 μM CpG DNA for 2 h; TLR9-myc precipitated from cell lysates; MyD88 detected with anti-MyD88

Substance: MyD88 (from UniProt P22366 1-296)
- binding [1]: no binding (condition: without CpG DNA stimulation)
- binding [2]: binds weakly
